Test results reported in PubChem BioAssay AID540276 (National Center for Advancing Translational Sciences (NCATS), 2011).
The whole screen tested about 300,000 compounds, of which about 5,400 (1.8%) were called active. Inconclusive results, whose numbers are uncertain, are shown with a selection of clear calls. The call rests on the fitted dose curve; tested in HEK293 cells. Where the call is inconclusive, the potency comes from a doubtful curve fit.

Test: qHTS for inhibitors of binding or entry into cells for Marburg Virus
Settings: Marburg virus pseudotyped entry inhibition, cell reporter; activity change, negative = inhibition: at 37.8 µM (top of the series) unless noted
On the % scale 0 is the no-effect control and ±100 the full control effect; potency means the concentration at half of the fitted maximal effect.

SMILES	Potency	activity change, negative = inhibition
Cc1ccc(C(NC(=O)NN2CCN(C)CC2)C(Cl)Cl)cc1F (stereo unspecified)	inactive	
O=C(Nc1ccc(F)cc1)c1cccc(N2C(=O)C3C4C=CC(C5CC45)C3C2=O)c1 (stereo unspecified)	inactive	
COCCCNC(=O)c1ccc2c(c1)CCN2S(C)(=O)=O	inactive	
O=C1CN(C(=O)CSc2nnnn2-c2ccc(Cl)cc2)c2ccccc2N1	inconclusive: 2.82 µM [inhibitor, single point]	
COc1ccc(NC(=O)CN(C)CC(=O)Nc2sc3c(c2C(N)=O)CCC3)cc1	inconclusive: 1 µM [activator, single point]	
CSc1nc2nc(C(F)(F)F)cc(-c3ccccc3)n2n1	inactive	
COc1ccccc1C(=O)NNC(=O)c1nn(Cc2ccccc2)c(=O)c2ccccc12	inconclusive: 25.1 µM [inhibitor, single point]	
CCOCCCN(C)C1CCN(C(=O)c2oc3ccccc3c2NC(=O)Cc2ccc([N+](=O)[O-])cc2)CC1	inconclusive: 12.6 µM [inhibitor, partial curve, poor fit]	
Cn1c(=O)c2c(nc(CN3CCN(c4ccccc4)CC3)n2CCc2ccccc2)n(C)c1=O	inconclusive: 25.1 µM [inhibitor, single point]	
O=C(CCCN1C(=O)/C(=C/c2cccs2)SC1=S)NNC(=O)c1ccccc1O	inactive	
Cc1csc(CN(C)C(=O)CC2C(=O)NCCN2CC(C)(C)C)n1 (stereo unspecified)	inconclusive: 14.1 µM [activator, partial curve, poor fit]	
O=C(COC(=O)c1cc([N+](=O)[O-])ccc1N1CCOCC1)c1ccc(OC(F)F)cc1OC(F)F	inconclusive: 35.5 µM [inhibitor, single point]	
Cc1cccc(-n2c(/C=C/c3ccc([N+](=O)[O-])o3)nc3ccccc3c2=O)c1	inconclusive: 2.82 µM [inhibitor, partial curve, poor fit]	
O=C(CNCc1ccccn1)Nc1cc(S(=O)(=O)N2CCCCC2)ccc1Cl	inconclusive: 17.8 µM [inhibitor, single point]	
CCN(CC(=O)Nc1ccc(NC(C)=O)cc1)C(=O)c1ccc(NC2CC2)c([N+](=O)[O-])c1	inconclusive: 2.82 µM [activator, single point]	
CC(C)N1CCC(N2CCN(Cc3ccc(-c4ccccc4Cl)o3)CC2CCO)CC1 (stereo unspecified)	inconclusive: 1.12 µM [inhibitor, full curve, poor fit]	
O=S(=O)(NC1c2cccc3cccc(c23)C1N1CCNCC1)c1ccccc1 (stereo unspecified)	inconclusive: 29.1 µM [inhibitor, single point]	
Cc1cccc(NC(=O)c2cn(-c3ccccc3)nc2-c2ccccc2)c1	inconclusive: 0.355 µM [activator, partial curve, poor fit]	
COC(=O)c1sccc1NC(=O)c1c(C)c(-c2cccc(Cl)c2)nc2ccccc12	inconclusive: 1.26 µM [inhibitor, single point]	
COc1ccc(S(=O)(=O)NN=C2CCCCC2)cc1	inactive	
CCCN1C(=O)c2ccccc2NC1c1ccc(OC)c(CSc2ccccn2)c1 (stereo unspecified)	inconclusive: 2.24 µM [inhibitor, full curve, poor fit]	
COCC=CC1=CC2=CC(=O)C(C)(OC(=O)c3cnc4ccccc4n3)C(=O)C2=CN1Cc1ccccc1 (stereo unspecified)	inactive	

Four compounds picked at random from those above:
SMILES	Potency	activity change, negative = inhibition
CCOCCCN(C)C1CCN(C(=O)c2oc3ccccc3c2NC(=O)Cc2ccc([N+](=O)[O-])cc2)CC1	inconclusive: 12.6 µM [inhibitor, partial curve, poor fit]	
COC(=O)c1sccc1NC(=O)c1c(C)c(-c2cccc(Cl)c2)nc2ccccc12	inconclusive: 1.26 µM [inhibitor, single point]	
CCCN1C(=O)c2ccccc2NC1c1ccc(OC)c(CSc2ccccn2)c1 (stereo unspecified)	inconclusive: 2.24 µM [inhibitor, full curve, poor fit]	
O=C(COC(=O)c1cc([N+](=O)[O-])ccc1N1CCOCC1)c1ccc(OC(F)F)cc1OC(F)F	inconclusive: 35.5 µM [inhibitor, single point]	

The results go on:

SMILES	Potency	activity change, negative = inhibition
O=C(NCC(c1cccnc1)N1CCOCC1)Nc1ccccc1 (stereo unspecified)	inconclusive: 16.4 µM [activator, single point]	
Cc1c(NC(=O)C(CC(=O)O)NCc2ccco2)c(=O)n(-c2ccccc2)n1C (stereo unspecified)	inconclusive: 1 µM [inhibitor, single point]	
CCOc1ccc(CCNC(=O)c2nnn(CC(=O)Nc3ccccc3C)c2N)cc1OCC	inconclusive: 0.631 µM [inhibitor, partial curve, poor fit]	
CCC(C)c1ccccc1NC(=O)c1cc2cccc([N+](=O)[O-])c2[nH]1 (stereo unspecified)	inconclusive: 35.5 µM [inhibitor, single point]	
COc1ccc(-c2cc(C3CC3)nc(N)c2C#N)cc1	inconclusive: 39.8 µM [inhibitor, partial curve, poor fit]	
Cc1ncsc1C(=O)Nc1nc2c(s1)CC(C)CC2 (stereo unspecified)	inconclusive: 1.03 µM [activator, single point]	
Cc1cc(C)n(-c2ccc(C(=O)Nc3ccc(C)c(S(=O)(=O)N4CCOCC4)c3)cc2)n1	active: 10 µM	
Cc1ccc(-c2nc(-c3ccccc3)no2)cc1	inconclusive: 11.2 µM [inhibitor, partial curve, poor fit]	
CCn1c(CC(=O)Nc2cccc(Cl)c2Cl)nnc1SCCOc1ccc(OC)cc1	inactive	
C=CCn1c(COc2ccccc2F)nnc1SCC(=O)c1c[nH]c2ccccc12	active: 12.6 µM	
COc1ccc(OC)c(C(C(=O)NC2CCCCC2)N(C(=O)c2snc(C(N)=O)c2N)c2ccccc2OC)c1 (stereo unspecified)	inconclusive: 1.41 µM [inhibitor, full curve, poor fit]	
CCOC(=O)c1[nH]c2ccccc2c1NC(=O)c1ccccc1F	inconclusive: 3.98 µM [activator, single point]	
O=C(O/N=C1\CCCc2ccccc21)c1cccs1	inactive	
Cc1ccc(/C=C2/NC(=O)N(Cc3ccccc3F)C2=O)o1	inactive	
Cc1cccc(N2C(=O)NC(=O)/C(=C\c3cccn3-c3ccc(Cl)cc3)C2=O)c1	inconclusive: 35.5 µM [inhibitor, single point]	
O=C(N/N=C/c1ccc2c(c1)OCO2)c1ccc(NC(=O)c2ccccc2Cl)cc1	inactive	
COc1ccc2nc(NC(=O)c3ccc(NS(=O)(=O)c4cccs4)cc3)sc2c1	inconclusive: 3.16 µM [activator, partial curve]	
Clc1cccc(Cl)c1CO/N=C/c1c(-c2ccccc2)nc2n1CCS2	active: 20.6 µM	
c1csc(CNc2ncnc3nc[nH]c23)c1	inactive	
CNC(=O)C1CC(=O)N(CCc2ccccc2)C(=Nc2ccc(OC)cc2)S1 (stereo unspecified)	inconclusive: 3.16 µM [activator, single point]	
COc1ccccc1N1CCN(/N=C/c2ccc(O)c(O)c2)CC1	inconclusive: 35.5 µM [inhibitor, single point]	
CC(C)c1cc(Br)ccc1OCCCN1C(=O)NC(C)(C)C1=O	inactive	

Looked up above.
Clc1cccc(Cl)c1CO/N=C/c1c(-c2ccccc2)nc2n1CCS2 – Potency: active: 20.6 µM
CCOC(=O)c1[nH]c2ccccc2c1NC(=O)c1ccccc1F – Potency: inconclusive: 3.98 µM [activator, single point]

Further records follow:

SMILES	Potency	activity change, negative = inhibition
Cc1ccc(-n2cccc2C(=S)N=P(N(C)C)(N(C)C)N(C)C)cc1	inconclusive: 14.1 µM [inhibitor, partial curve, poor fit]	
O=C(Cc1ccccc1)Nc1ccc(C(=O)NCC2COc3ccccc3O2)cc1 (stereo unspecified)		inconclusive: 6.92% [activator]
Cc1ccc(Cl)cc1NC(=O)CCS(=O)(=O)c1cccc2nonc12	inactive	
CCOc1ccc(S(=O)(=O)N2CCN(c3ccccc3)CC2)c2cccnc12	inconclusive: 35.5 µM [inhibitor, single point]	
CC(C)(C)C(=O)O/N=C(\N)c1c(Cl)cccc1Cl	inconclusive: 3.16 µM [activator, partial curve, poor fit]	
CCCCCN(C(=O)CCC(=O)OCC(=O)N1CCCCC1C)c1c(N)n(CCCC)c(=O)[nH]c1=O (stereo unspecified)	inactive	
CC(=O)N1CCN(Cc2nc3cc(Cl)ccc3c(=O)[nH]2)CC1	inconclusive: 1 µM [inhibitor, single point]	
O=C(CCCN1C(=O)c2cccc3cccc(c23)C1=O)NC1CCS(=O)(=O)C1 (stereo unspecified)	inconclusive: 3.55 µM [inhibitor, partial curve, poor fit]	
COc1ccccc1N(C)c1cc2c(c3c1ccn3C)C1CCC2C1 (stereo unspecified)	inconclusive: 0.995 µM [inhibitor, full curve, poor fit]	
O=S1(=O)N=C(N(CCO)/N=C/C=C/c2ccccc2)c2ccccc21	inconclusive: 22.4 µM [inhibitor, single point]	
C/C(=N\NC(=O)c1sccc1C)c1ccncc1	inactive	
COc1ccc(CCNC(=O)C(=O)NCC2CCCN2S(=O)(=O)c2cccs2)cc1OC (stereo unspecified)	inconclusive: 5.62 µM [inhibitor, single point]	
COc1ccc(Cl)cc1NC(=S)N(Cc1cccnc1)Cc1ccco1	inconclusive: 0.794 µM [inhibitor, single point]	
Cc1ccc(-c2nc(CCNC(=O)c3ccco3)cs2)cc1	inconclusive: 2.51 µM [inhibitor, partial curve, poor fit]	
COc1ccc(N2CCN(C(=O)c3cc(=O)c4cc(C)ccc4o3)CC2)cc1	inconclusive: 3.16 µM [inhibitor, single point]	
Cc1ccc(SCc2cn3ccccc3n2)cc1	inconclusive: 35.5 µM [inhibitor, single point]	
Cc1cc(C2=NNC(=Nc3ccc(S(=O)(=O)N4CCOCC4)cc3)SC2)c(C)n1C	inconclusive: 16.4 µM [inhibitor, partial curve, poor fit]	
Cc1ccc(NC(=O)CS(=O)c2ccccc2N)c(C)c1 (stereo unspecified)	inconclusive: 2.51 µM [activator, partial curve, poor fit]	
Clc1ccc2nc(COc3ccccc3)[nH]c2c1	inconclusive: 1.58 µM [inhibitor, full curve, poor fit]	
CCOC(=O)c1ccc(Nc2ncnc3ccccc23)cc1	inconclusive: 4.47 µM [activator, partial curve]	
CCOC(=O)N1CCN(Cc2nc(-c3ccccc3)no2)CC1	inconclusive: 15.8 µM [activator, single point]	
Cc1cc(C(=O)Nc2cccc(C)c2C)n(-c2ccccc2)n1	inactive	
